Values quoted from earlier work, collected in patent publication US12558327B2, “Methods and compositions for treating sleep apnea” (The Brigham and Women's Hospital, Inc., priority 2019, dated 2026).
For at least one compound, name, drawing or mass did not settle the structure.

System: OSA patients
Details: cited from earlier work

## CN1CCN(C(=O)O[C@H]2c3nccnc3C(=O)N2c2ccc(Cl)cn2)CC1 [eszopiclone]
1 night, 17 OSA patients
  increase in arousal threshold: ~30%
8/17 patients
  reduction of AHI in those with a low arousal threshold at baseline: 43%
17 OSA patients
  AHI overall (group data): did not show a significant reduction
